Paper PMC7975697
These are yes or no findings as the source states them, for the method shown. Binding seen in cells or lysates may run through a third protein. Some results given as binding are weak or reduced against the parent protein; the word gives no strength.

Sequences of proteins named here, by UniProt entry; tags and fusion partners are left off.
UniProt P08727: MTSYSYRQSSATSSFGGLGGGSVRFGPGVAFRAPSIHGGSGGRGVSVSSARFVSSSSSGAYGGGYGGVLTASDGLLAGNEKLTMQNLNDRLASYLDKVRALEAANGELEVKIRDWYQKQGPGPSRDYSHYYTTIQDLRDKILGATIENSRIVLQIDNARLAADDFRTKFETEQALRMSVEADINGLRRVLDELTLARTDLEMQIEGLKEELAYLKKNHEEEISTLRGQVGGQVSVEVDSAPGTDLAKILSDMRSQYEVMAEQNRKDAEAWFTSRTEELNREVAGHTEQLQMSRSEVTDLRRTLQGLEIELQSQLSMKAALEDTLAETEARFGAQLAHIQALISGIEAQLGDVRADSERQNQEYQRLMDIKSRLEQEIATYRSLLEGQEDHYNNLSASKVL
UniProt P35222: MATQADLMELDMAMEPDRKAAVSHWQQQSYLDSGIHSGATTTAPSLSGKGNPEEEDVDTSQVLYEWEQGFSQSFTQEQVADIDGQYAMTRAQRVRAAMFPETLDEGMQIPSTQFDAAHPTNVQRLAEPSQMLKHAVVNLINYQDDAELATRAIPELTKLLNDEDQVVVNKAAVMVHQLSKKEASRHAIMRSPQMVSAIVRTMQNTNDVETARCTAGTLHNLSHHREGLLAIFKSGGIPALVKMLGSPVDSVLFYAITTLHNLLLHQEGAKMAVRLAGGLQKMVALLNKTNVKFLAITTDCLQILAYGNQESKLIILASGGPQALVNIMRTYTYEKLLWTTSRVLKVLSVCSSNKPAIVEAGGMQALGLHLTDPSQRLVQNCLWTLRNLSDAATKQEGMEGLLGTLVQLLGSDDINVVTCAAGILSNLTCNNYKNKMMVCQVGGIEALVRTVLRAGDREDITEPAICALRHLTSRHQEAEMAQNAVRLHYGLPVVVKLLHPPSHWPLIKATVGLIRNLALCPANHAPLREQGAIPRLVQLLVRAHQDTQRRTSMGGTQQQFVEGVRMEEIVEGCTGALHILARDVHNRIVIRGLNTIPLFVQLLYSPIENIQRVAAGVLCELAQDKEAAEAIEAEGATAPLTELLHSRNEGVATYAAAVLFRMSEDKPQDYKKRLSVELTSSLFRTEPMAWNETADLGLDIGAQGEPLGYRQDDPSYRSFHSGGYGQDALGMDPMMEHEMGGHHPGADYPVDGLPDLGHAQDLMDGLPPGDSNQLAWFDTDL

Biological target: KRT19 (Cytokeratin 19) (human (endogenous in Huh7 and MHCC-97H)) (UniProt P08727)
Assay: co-IP; Protein A/G Sepharose with antibodies specific for KRT19, β-catenin and RAC1, or normal IgG; lysates of KRT19 positive Huh7 and MHCC-97H cells; Western blotting

β-catenin (from UniProt P35222 1-781)
binding: binds
